This is an account of results in publication PMC9425028.

The chains behind the UniProt entries cited, without tags or fusion partners. Where a name states a change or a piece, a line headed by the entry shows the natural chain unless it says otherwise. A line that says so, or that is headed by a name, gives the form on record, which may keep a tag or linker. Residues count along the entry.
wild-type recombinant mouse MASP-3 fused with PA-tag (WT rmMASP-3-PA) (P98064, form named): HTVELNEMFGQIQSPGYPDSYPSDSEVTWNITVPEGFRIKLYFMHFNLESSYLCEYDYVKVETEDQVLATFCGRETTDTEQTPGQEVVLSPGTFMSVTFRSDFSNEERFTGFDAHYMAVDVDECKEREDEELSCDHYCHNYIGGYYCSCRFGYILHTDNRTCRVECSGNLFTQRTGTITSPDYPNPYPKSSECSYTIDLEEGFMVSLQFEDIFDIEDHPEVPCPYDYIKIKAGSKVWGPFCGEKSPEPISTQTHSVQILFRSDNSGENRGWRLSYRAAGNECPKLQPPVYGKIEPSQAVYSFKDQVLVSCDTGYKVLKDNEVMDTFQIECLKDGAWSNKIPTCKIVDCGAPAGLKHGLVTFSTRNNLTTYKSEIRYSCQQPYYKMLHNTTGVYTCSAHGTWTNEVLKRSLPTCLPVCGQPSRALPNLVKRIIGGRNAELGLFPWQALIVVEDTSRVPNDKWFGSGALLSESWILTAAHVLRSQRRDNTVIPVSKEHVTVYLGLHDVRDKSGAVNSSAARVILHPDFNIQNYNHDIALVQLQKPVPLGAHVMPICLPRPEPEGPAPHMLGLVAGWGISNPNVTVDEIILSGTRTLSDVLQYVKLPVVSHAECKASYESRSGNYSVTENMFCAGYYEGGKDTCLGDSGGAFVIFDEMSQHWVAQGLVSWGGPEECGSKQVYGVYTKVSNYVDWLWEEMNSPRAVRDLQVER
UniProt Q3SXB8, residues 27-272: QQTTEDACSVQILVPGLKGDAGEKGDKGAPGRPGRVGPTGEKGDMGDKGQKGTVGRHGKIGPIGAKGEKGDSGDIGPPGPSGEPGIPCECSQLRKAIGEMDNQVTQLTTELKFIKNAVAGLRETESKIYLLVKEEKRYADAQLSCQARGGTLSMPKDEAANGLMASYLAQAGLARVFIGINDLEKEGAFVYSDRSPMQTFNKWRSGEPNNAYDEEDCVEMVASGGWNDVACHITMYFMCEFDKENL
UniProt P39039, residues 19-239: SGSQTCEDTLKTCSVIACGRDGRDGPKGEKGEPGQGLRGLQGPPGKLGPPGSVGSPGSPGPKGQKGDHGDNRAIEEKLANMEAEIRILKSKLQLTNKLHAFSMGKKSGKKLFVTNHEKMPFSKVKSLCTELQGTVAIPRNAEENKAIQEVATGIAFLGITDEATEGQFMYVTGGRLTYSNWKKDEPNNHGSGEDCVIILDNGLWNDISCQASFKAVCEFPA
UniProt P41317, residues 19-244: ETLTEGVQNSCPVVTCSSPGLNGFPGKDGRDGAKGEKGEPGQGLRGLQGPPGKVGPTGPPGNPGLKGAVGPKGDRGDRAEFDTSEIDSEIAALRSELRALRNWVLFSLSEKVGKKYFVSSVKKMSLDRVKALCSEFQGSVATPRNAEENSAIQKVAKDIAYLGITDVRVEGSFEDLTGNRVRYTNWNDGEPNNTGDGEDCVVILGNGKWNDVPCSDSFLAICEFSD

No constants are given. Whether binding was seen depends on the method and setting. Binding seen in cells or lysates may run through a third protein. Some results given as binding are weak or reduced against the parent protein; the word gives no strength.

This assay concerns the target wild-type recombinant mouse MASP-3 fused with PA-tag (WT rmMASP-3-PA) (mouse) (UniProt P98064). Briefly: co-IP; 100 ug rmMASP-3-PA given intravenously to MASP-3-deficient C57BL/6J mice, serum taken after 3 h; immunoprecipitation with anti-PA tag antibody beads in TBS with 7 mM MgCl2 and 5 mM CaCl2, 4°C overnight, four washes; reducing SDS-PAGE and Western blot for each LP-PRM, band intensity normalised to rmMASP-3-PA; WT serum also precipitated in TBS with 7 mM MgCl2 and 10 mM EGTA as negative control (levels significantly reduced); only the target purified. For orientation: A western blot detects proteins with antibodies after separation by electrophoresis.
As for “mouse collectin kidney 1 (CL-K1) (from UniProt Q3SXB8 27-272)”, the binding entry is on record as “binds”.
“mouse mannose-binding lectin A (MBL-A) (from UniProt P39039 19-239)”: the binding entry is “binds”.
Consider “mouse mannose-binding lectin C (MBL-C) (from UniProt P41317 19-244)”, for which the binding entry is listed as “binds”.
